Some entries share one result that the patent states for a list of compounds.
Tested on: K562 cells
Experiment: Magnetic separation of CD34 positive cells by polypeptide on nano-magnetic beads
Type: cell-based
Settings: K562 cells mixed with peripheral blood cells, 1 hour incubation, magnetic sorter

Row | Substance | sorting efficiency of K562 cells
1 | polypeptide 17: synthetic CD34 binding polypeptide displayed by phage 17, amino acid sequence SEQ ID NO: 1 (SSFASKKGYPFNRMCAS; Non-antibody binding protein capable of binding to CD34) | higher than 95%
2 | polypeptide 19: synthetic CD34 binding polypeptide displayed by phage 19, amino acid sequence SEQ ID NO: 2 (SSLGWWGPRRDFPGRRERIYLGIPWLSLLGSGAPSPV; Non-antibody binding protein capable of binding CD34) | higher than 95%
